The record followed here is article PMC9973270, “RdmA Is a Key Regulator in Autoinduction of DSF Quorum Quenching in Pseudomonas nitroreducens HS-18” (mBio, 2022).

The data set deals with T1, RdmA (Pseudomonas nitroreducens HS-18).
T1 sequence (looked up): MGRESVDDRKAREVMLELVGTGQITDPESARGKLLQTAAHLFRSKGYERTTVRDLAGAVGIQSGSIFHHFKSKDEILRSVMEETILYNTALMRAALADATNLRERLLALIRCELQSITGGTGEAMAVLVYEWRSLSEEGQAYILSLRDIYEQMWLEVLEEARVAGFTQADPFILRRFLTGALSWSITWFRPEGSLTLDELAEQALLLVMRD
The experiment in a line: EMSA. Conditions: LightShift chemiluminescent EMSA kit (buffer per manufacturer; pH and salt not stated), 10 uL, 2 nM biotin-DNA (20 fmol, 0-4 uM RdmA, recombinant protein, residues 1-211, protein details: N-terminal His6 (pET32a), label: 3'-biotin, probe letters rebuilt from the primers and the genome. On the technique in general: Mobility shift assays separate free from complexed probe on a gel.

Construct, isoform or probe ends are uncertain for at least one entry. Weaker means in comparison with the reference protein, sequence or condition of that experiment. Tags and fusion partners may be left off the protein sequences shown.

Take “GCTTTCTCTCCCCATGGGTCCCATCTGGCCACCTTGCTCAGGGCAATTCATCGAATCGCCCCGCAAGTGCTTGTGTTGTCTGACGAAATGTAAGCCCGCGAGTGCCAACCAAGCAAGCGCTTGGCCATCCAATGGTTGGGGTAGTCATCGACTCGGGGCTTTTCAACCAAGCGCTTGCTTGGTAATGTCGATGCATCACTCAGCGTCACGGGCAGAACA (double strand) [PdmgA F1]”: the binding result reads like this: (0.6 mM DSF preincubated with 2 uM RdmA) “binds more weakly”; (complete shift at 1 uM RdmA) “binds”.
